# Laboratory results from PubChem BioAssay AID1259423 (Fisher Drug Discovery Resource Center, 2018).
# This is one part of the list.
# Test system: Aedes aegypti neuropeptide Y-like receptor 7 (NPYLR7)
# Experiment: agonists of mosquito NPYLR7 receptor, primary screen, cell-based, Aedes aegypti, calcium fluorescence, mosquito biting behavior (AID 1259423);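 also: 0% = vehicle and 100% = reference agonist at the receptor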
# Conditions: HEK293T NPYLR7/Galpha15, GCaMP6s calcium fluorescence; measured here: Max-Min RFU normalised activation; at 10 µM; stronger effect = higher value
row,SMILES,activation [%]
1,CN(CCCl)CCCl,-13.8
